Measurements published in paper doi:10.1101/2023.03.13.531998.
These are yes or no findings as the source states them, for the method shown. Binding seen in cells or lysates may run through a third protein. Some results given as binding are weak or reduced against the parent protein; the word gives no strength.

By UniProt entry, the sequences of proteins in these tests, tags left out.
UniProt O00571: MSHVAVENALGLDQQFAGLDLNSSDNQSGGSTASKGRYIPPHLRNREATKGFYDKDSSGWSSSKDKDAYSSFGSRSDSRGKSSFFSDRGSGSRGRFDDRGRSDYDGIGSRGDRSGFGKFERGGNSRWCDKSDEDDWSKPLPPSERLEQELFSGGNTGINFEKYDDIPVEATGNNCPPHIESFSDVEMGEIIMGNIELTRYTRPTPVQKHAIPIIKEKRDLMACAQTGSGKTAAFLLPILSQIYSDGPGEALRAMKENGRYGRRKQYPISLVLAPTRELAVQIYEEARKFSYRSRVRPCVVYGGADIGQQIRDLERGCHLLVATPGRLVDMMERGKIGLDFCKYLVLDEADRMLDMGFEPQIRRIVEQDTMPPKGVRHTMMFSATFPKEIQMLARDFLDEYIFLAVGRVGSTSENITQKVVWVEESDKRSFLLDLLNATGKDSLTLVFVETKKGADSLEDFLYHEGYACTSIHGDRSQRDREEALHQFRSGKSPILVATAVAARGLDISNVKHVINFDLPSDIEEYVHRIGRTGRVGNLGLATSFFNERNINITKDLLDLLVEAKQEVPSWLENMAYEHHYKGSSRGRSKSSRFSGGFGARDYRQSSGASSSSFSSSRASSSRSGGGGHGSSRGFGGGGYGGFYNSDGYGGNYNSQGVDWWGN
UniProt Q9NRC8: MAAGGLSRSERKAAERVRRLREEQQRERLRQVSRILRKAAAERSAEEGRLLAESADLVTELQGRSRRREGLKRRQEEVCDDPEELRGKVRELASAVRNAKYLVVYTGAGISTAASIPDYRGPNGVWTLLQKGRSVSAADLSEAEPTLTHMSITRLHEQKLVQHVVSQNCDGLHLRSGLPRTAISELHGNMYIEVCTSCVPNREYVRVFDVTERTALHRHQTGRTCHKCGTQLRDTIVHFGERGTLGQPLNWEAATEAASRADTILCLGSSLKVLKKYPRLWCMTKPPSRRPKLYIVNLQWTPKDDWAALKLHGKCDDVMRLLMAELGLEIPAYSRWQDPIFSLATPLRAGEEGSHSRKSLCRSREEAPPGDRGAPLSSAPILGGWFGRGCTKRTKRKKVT

Molecular target: HA-DDX3X (UniProt O00571)
Test: co-IP

FLAG-SIRT7 (from UniProt Q9NRC8 1-400) (enzyme)
binding: binds
